Source: article PMC10163288
This is one part of the list.

B1: il2ra_site1_1z92_normal_mot_22370d59370c406a0c205a431f537cfa_0001_000000027_0001_1_14_H_._HHH_b1_00743_af2_0001_0000600008_0000001_0 (protein)
chain: SSSDKREVFEVLRKISHLFANGNPEEAEELAERLQEELRKRGDEAALRDVEKFVKLVEERNSSSS
B2: il2ra_site1_2b5i_normal_mot_HHH_b2_04353_af2_000000128_0001_1_17_H_._HHH_b1_06468_af2_0001_0000100002_0000001_0_af2pred_dldesign_0_af2pred (protein)
chain: SSSSSSLEDEVYRLYKEATELYRQGKVEEAKEVLKKALELAKKGKFKVQEKQLKELLEKLSSSSS
B3: il2ra_site1_1z92_sap_17_mot_HHH_b1_07156_000000060_0001_21_38_H_._HEEHE_0687_0001_0000200029_0000001_0_0001 (protein)
chain: SLEEVEEELKKLVNDPAARQAIEIAVKLAKEANLPPEALLRNLAIFARRFGDEELLEAVEELLRK
B4: il2ra_site1_2b5i_sap_7_mot_HHH_b2_07267_000000116_0001_43_56_H_._HHH_b1_01886_0001_0000300022_0000001_0_0001_af2pred_0001_af2pred (protein)
chain: SSSSSWEELLELYREASKLLRNGNPEEAERVLEEALKIAKELGDEKIERQLEHLLELIRGSSSSS
B5: il2ra_site2_3nfp_sap_12_mot_HHH_b2_07840_000000026_0001_18_34_H_._HHH_b1_07725_af2_0001_0000300017_0000001_0_0001 (protein)
chain: DLELAQLVMEARKYADQEVIALLYIILKLARELNDPRLKELLREAAELVEEGNPEEAKEVLEEAK
B6: il2ra_site2_2erj_sap_25_mot_HHH_b2_05486_000000159_0001_39_55_H_._HHH_b1_00992_0001_0000100004_0000001_0_0001 (protein)
chain: SSSSSEELHRLYELANELLHLWAENDEEEAREVAEELLELAEKAQSRTAREVARRILEELSSSSS
B7: il2ra_site2_2erj_sap_23_mot_ca9fcc9ace360711d783d1260e4fbff1_0001_1_af2_000000007_0001_15_32_H_._HHH_b2_04203_af2_0001_0000300022_0000001_0_0001 (protein)
chain: SSSDREEARVHFLAFRAMRLNNNGNPEEAQKVLEEAKEIAEENNNEELREWLEAMERTIKHSSSS
B8: il2ra_site2_3nfp_normal_mot_HHH_b1_05918_af2_000000127_0001_23_40_H_._HHH_b2_06926_0001_0000300016_0000001_0 (protein)
chain: SSSSDEREEYLRAALLLLELAVELGDREAARSLTETAREAAEALNDEEILEALERLIEELESSSS
B9: il2ra_site2_2erj_normal_mot_HHH_b1_08042_000000168_0001_1_18_H_._HHH_b2_03570_0001_0000100007_0000001_0 (protein)
chain: SSSSSEEAERTAKVLEEVMRLFQEGDPEQARELLEELARELEELNDEELLEAVERWLRYLSSSSS
B10: il2ra_site1_3nfp_sap_18_mot_HHH_b2_00809_af2_000000121_0001_23_40_H_._HHH_b2_07147_0001_0000400019_0000001_0_0001_af2pred_0001_af2pred_1 (protein)
chain: SERAEEKLVRFAAERNNPRLLRHLLEVLEKFLGDPEEATEALVKAIAEVLNIPPEEAREIVEEVK
B11: il2ra_site1_3nfp_sap_16_mot_06fb79ff5b0635ea054e4773f75fe636_0001_af2_000000209_0001_53_63_H_._HEEHE_0001_0001_0000200015_0000001_0_0001_af2pred_0001_af2pred_1 (protein)
chain: TAEELVAEAIHHAVKRNSPFLLRRVLEDFERFAGDPEEAKRLFEEFLEEAGLSPEEIERAKELVE
B12: il2ra_site1_1z92_normal_mot_HHH_b2_05373_af2_000000032_0001_24_40_H_._66959ead3e6c57cb3ef8243f3eb758e0_0001_1_af2_0001_0000100003_0000001_0_af2pred_0001_af2pred … (protein)
chain: SLIEEDLREAVEKNDEELLKEFIELLLKDTGDPKLVEALLRVLVRRLGLPPEVLEELRRLLEELT
B13: il2ra_site1_1z92_sap_15_mot_HHH_b1_00368_000000203_0001_23_39_H_._HHH_b2_07985_0001_0000100002_0000001_0_0001 (protein)
chain: SSSTREMLKRLSRIISKLIHKYGLSDEQALELLKLADELALRGVSEEEIEQLLEELAKELKSSSS
B14: il2ra_site1_2b5i_normal_mot_HHH_b2_04910_000000118_0001_1_19_H_._HHH_b1_02607_0001_0000300018_0000001_0_af2pred_0001_af2pred_1 (protein)
chain: SSSSDFRELRELLREANELFKNGDPEEARRVLEEAIELAREAGNRSMLRFLETALRLIEASSSSS
B15: il2ra_site2_3nfp_sap_15_mot_HHH_b2_00102_000000046_0001_18_35_H_._HHH_b1_04540_af2_0001_0000400024_0000001_0_0001_af2pred_0001_af2pred (protein)
chain: SSSSSEEEEEVEKLLKEAEELLKRGDPEEAEEVVHRALLIARELNNEELLELIKELFEKILSSSS
B16: il2ra_site1_1z92_sap_21_mot_HHH_b1_04602_000000153_0001_1_19_H_._6bb093d23f5042b6c551c363657da53b_0001_1_0001_0000300026_0000001_0_0001 (protein)
chain: NRRELQHMIEELREEGVPPEEIVKILLELVERDAGDPRLALQFLKRLLRKLGDPELLKVLEELIK
B17: il2ra_site2_3nfp_sap_20_mot_HHH_b1_01243_000000091_0001_42_57_H_._HHH_b2_00198_af2_0001_0000400017_0000001_0_0001 (protein)
chain: SSSSSEHEEYLRAALALLEWALEEGDEELFRKLARLIEMAAEDAKDEEVLEEVRRLLEEFDSSSS
B18: il2ra_site2_2erj_normal_mot_HHH_b1_08702_000000201_0001_39_56_H_._HHH_b2_04470_0001_0000400002_0000001_0 (protein)
chain: SSSSSEEEEVEELFKKAKELLENGNPEEASAVLARAAFIAIENNNDELLRELWELAREIFSSSSS
B19: il2ra_site2_2erj_normal_mot_HHH_b1_03833_000000078_0001_1_20_H_._HHH_b2_00047_0001_0000100001_0000001_0 (protein)
chain: SSSSDEIEELLRELREAFEKNDPRFHKLAWELLRLASELGSDEAAEIAQEAFRLFEELLKGSSSS
B20: il2ra_site2_2erj_normal_mot_HHH_b1_07806_000000211_0001_42_56_H_._HHH_b2_03376_0001_0000100006_0000001_0 (protein)
chain: SSSSSDELERLYELLEEVDELLQKGNEEEAEEVAEELEKLARELQSPNVEELLKLSLELNSSSSS
B21: il2ra_site2_2erj_normal_mot_HHH_b2_05773_000000169_0001_20_36_H_._HHH_b1_04433_af2_0001_0000200004_0000001_0 (protein)
chain: SSSSDEEAEKLREEAREAAEEGDPEEAFRLLSRAFEIAYELNDHRLAAEIIELAARIAKLESSSS
B22: il2ra_site1_3nfp_sap_19_mot_b9b1aa0f98829a21a591038753170461_0001_1_af2_000000119_0001_3_14_H_._611abf4560985a38fcb56c97b2cc3b8d_0001_0001_0000300020_0000001_0_ … (protein)
chain: DEEVEKLFEELKKRIPPEEVVRILLEELEEKLGNPHRASEIVMKVLLRLGFDIEEIARLLKRARE
B23: il2ra_site1_1z92_sap_23_mot_HHH_b2_02540_000000162_0001_1_16_H_._12a7ffe86416d83887ddd0891a48ef14_0001_0001_0000600022_0000001_0_0001_af2pred_0001_af2pred (protein)
chain: SSSSDLERSLRIAVEAAVEQAGLSEEQREELEKLVEELVERGVDFKEASKILDRVALELESSSSS
B24: il2ra_site1_3nfp_normal_mot_HHH_b1_08723_000000044_0001_1_15_H_._HHH_b1_08624_af2_0001_0000200015_0000001_0 (protein)
chain: SSSSSEQEQVEKLFRELFELAQRDDKEEVERVAEELERLLEELNNESHLRSVRNALKLLDSSSSS

target: il2ra, P01589; assay: yeast display titration

Row | Binder | apparent Kd
1 | B1 | inactive: no binding seen
2 | B2 | inactive: no binding seen
3 | B3 | inactive: no binding seen
4 | B4 | inactive: no binding seen
5 | B5 | inactive: no binding seen
6 | B6 | inactive: no binding seen
7 | B7 | inactive: no binding seen
8 | B8 | inactive: no binding seen
9 | B9 | inactive: no binding seen
10 | B10 | inactive: no binding seen
11 | B11 | inactive: no binding seen
12 | B12 | inactive: no binding seen
13 | B13 | inactive: no binding seen
14 | B14 | inactive: no binding seen
15 | B15 | inactive: no binding seen
16 | B16 | inactive: no binding seen
17 | B17 | inactive: no binding seen
18 | B18 | inactive: no binding seen
19 | B19 | inactive: no binding seen
20 | B20 | inactive: no binding seen
21 | B21 | inactive: no binding seen
22 | B22 | inactive: no binding seen
23 | B23 | inactive: no binding seen
24 | B24 | inactive: no binding seen

Random excerpt: 2 records from the list
Row | Binder | apparent Kd
18 | B18 | inactive: no binding seen
16 | B16 | inactive: no binding seen
